The other results are listed elsewhere or left out. These are further read-outs of the screen, such as a control signal, another cell line or another target. No call is given for them. Most of these compounds were active or inconclusive in the main read-out, so they are no random draw. Potencies come from curve fits of mixed quality, noted in brackets.
Experiment: qHTS Assay for Lipid Storage Modulators in Drosophila S3 Cells;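 on cell number change: cells counted by Cell Tracker Red CMTPX staining in the red channel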
Details: BODIPY lipid droplet fluorescence, 18-24 h; for cell number change: measured here: cell count max response, cells fed with added oleic acid
Outline: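 Drosophila S3 cells got compounds at several concentrations plus oleic acid (400 uM solution). Laser-scanning cytometry with 488 nm excitation read lipid droplets at 500-530 nm and cells at 575-640 nm. Percent activity was relative to 20 uM Triacsin C.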

[1] = measured here: lipid fluorescence (Fed channel) AC50, cells fed with added oleic acid
[2] = measured here: cell number channel AC50, cells fed with added oleic acid

Row | Compound | cell number change [%] | AC50 [1] | AC50 [2]
1 | COC(=O)c1[nH]c2cccc(C)c2c1NC(=O)CN1CCN(c2ccccc2OC)CC1 | 7.56 | 32.6 µM [rising, single point] | 
2 | Nc1nc(-c2ccc(Br)cc2)c(S(=O)(=O)c2ccccc2)s1 | 9.26 | 6.51 µM [rising, single point] | 6.51 µM [rising, single point]
3 | O=C(COC(=O)c1ccc(CO)cc1)Nc1ccc2ccccc2c1 | -5.55 | 0.00461 µM [falling, full curve, poor fit] | 6.51 µM [rising, single point]
4 | N#Cc1c(NCCCO)nc(NCc2ccccc2)c2c1CCN(Cc1ccccc1)C2 | -23.2 | 29.1 µM [falling, single point] | 
5 | COCc1nnc(NC(=O)c2cccs2)s1 | -4.98 | 0.103 µM [falling, full curve, poor fit] | 
6 | CCn1cc([N+](=O)[O-])c(C(=O)Nc2ccn(Cc3ccccc3F)n2)n1 | 90.8 | 6.51 µM [falling, single point] | 18.4 µM [rising, single point]
7 | O=C(NCc1ccccc1Cl)c1ccc(S(=O)(=O)Nc2cccc(C(F)(F)F)c2)cc1 | -31.6 | 32.6 µM [falling, single point] | 1.03 µM [falling, full curve, poor fit]
8 | CC1CCN(c2nc(/C=C/c3ccccc3)nc3ccccc23)CC1 | -46.8 | 16.4 µM [falling, single point] | 13 µM [falling, partial curve]
9 | O=C(CNc1ccccc1)NN=C1CCCC1 | 2.69 | 1.16 µM [rising, full curve] | 1.3 µM [rising, full curve]
10 | CCC(C(=O)NC1CCCC1)N(C(=O)Cn1nnc(-c2ccc(C)o2)n1)c1cccc(OC)c1 (stereo not given) | 11.3 | 29.1 µM [rising, single point] | 
11 | Cc1ccc(O)c(-c2cc(C(F)(F)F)[nH]n2)c1 | 8.68 | 23.1 µM [rising, single point] | 
12 | Cc1ccc(NS(=O)(=O)c2ccc(C(=O)N3CCCCCC3)cc2)cc1 | -22.7 | 29.1 µM [falling, single point] | 
13 | COc1ccc(NC(=O)CN(c2cccc(C(F)(F)F)c2)S(C)(=O)=O)cc1OC | 40 | 5.8 µM [rising, full curve] | 16.4 µM [rising, single point]
14 | CC(C)CN(CCCNC(=O)CN1C(=O)COc2ccc(S(=O)(=O)N3CCCCCC3)cc21)CC(C)C | 0.57 | 0.00651 µM [rising, full curve, poor fit] | 

Entries of single compounds, looked up by structure.
COCc1nnc(NC(=O)c2cccs2)s1 in the list: cell number change [%]: -4.98; AC50 [1]: 0.103 µM [falling, full curve, poor fit]
Cc1ccc(NS(=O)(=O)c2ccc(C(=O)N3CCCCCC3)cc2)cc1 in the list: cell number change [%]: -22.7; AC50 [1]: 29.1 µM [falling, single point]

— PubChem BioAssay AID2685 (National Center for Advancing Translational Sciences (NCATS), 2010)
